This is one part of the list. No stated cut-off is given here; in the data, active = 2 or more and inactive = the rest. This data set is noisy: repeats of one test often differ as much as different tests do.

103 compounds from the supplement of paper PMC4683952 can be followed below.

The assay concerns Lgr5 (MarsCy1-Lgr5-EGFP, U2OS). As to the kind of experiment: cell-surface Lgr5 expression (SCi1 fluorescence, background-subtracted) relative to WT DMSO (fold of DMSO control); higher = more Lgr5 at the plasma membrane. The conditions noted are these: U2OS MarsCy1-Lgr5-EGFP stable; treatment time: overnight; library: ActiProbe-5K (TimTec); 25 µM.
Consider `Cc1cc(=O)n(C)c(=O)n1CCCCN1CCCC1`, for which the “cell-surface Lgr5 expression” value is inactive: 1.14.
For `CCCC1(C)NC(=S)N(c2ccccc2)N1` (stereo not drawn) the value was inactive: 1.33; for `O=[N+]([O-])c1ccc(NCCNCCO)c([N+](=O)[O-])c1`, inactive: 1.44.
Turning to `N#CC1=C(O)NC(S)=C(C#N)C1`, the “cell-surface Lgr5 expression” value is inactive: 1.3.
For `Oc1cc(-c2cccs2)n[nH]1` the value was inactive: 1.09; for `CC(=O)Nc1sc(C)c(C)c1C(N)=O`, inactive: 1.33; for `Cn1c(S)nc2sc3c(c2c1=O)CCC(C(C)(C)C)C3` (stereo not drawn), inactive: 0.888.
As to `NNc1ncc([N+](=O)[O-])c2[nH]cnc12`, the “cell-surface Lgr5 expression” value is inactive: 0.908.
Regarding `O=Cc1sc([O-])nc1-[n+]1ccccc1`, the “cell-surface Lgr5 expression” value is inactive: 1.38.
On to `O=S(=O)(c1ccc(F)cc1)N1CCCC1`, for which the “cell-surface Lgr5 expression” value is inactive: 1.2.
For `O=C(CC12CC3CC(CC(C3)C1)C2)N1CCCOC1` the value was inactive: 1.19; for `c1ccc(-c2nonc2/N=N/c2nonc2-c2ccccc2)cc1`, inactive: 1.26.
Consider `CC(C)(C)NS(=O)(=O)c1ccc2oc3cc(-n4cnnn4)ccc3c2c1`, for which the “cell-surface Lgr5 expression” value is inactive: 1.07.
On to `C(=N/Nc1nncn1/N=C\c1cccs1)/c1cccs1`, for which the “cell-surface Lgr5 expression” value is inactive: 0.856.
For `CC(C)CC(=O)Nc1nnc(CC(C)(C)C)s1` the value was inactive: 1.18.
For `CC1=C(C#N)C(=O)C(C#N)(C#N)C(C)(C)C1` the value was inactive: 1.58.
Take `Nc1cc2c(cc1N1CCOC1=O)OCO2`: the “cell-surface Lgr5 expression” value was inactive: 1.33.
Take `Cc1nn(CCC(=O)N(C)Cc2cnn(C)c2)c(C)c1Cl`: the “cell-surface Lgr5 expression” value is inactive: 1.28.
Take `Sc1nnc(COc2ccccc2)n1/N=C/c1c[nH]c2ccccc12`: the “cell-surface Lgr5 expression” value was inactive: 1.56.
With `O=c1ccc2cc(S(=O)(=O)N3CCCN(S(=O)(=O)c4ccc5oc(=O)ccc5c4)CC3)ccc2o1`, the “cell-surface Lgr5 expression” value is inactive: 1.48.
As to `CNC(=S)Nc1ccc(Cl)cc1`, the “cell-surface Lgr5 expression” value was inactive: 1.35.
`CSc1ccc(C2N(Cc3ccccc3)CCN2Cc2ccccc2)cc1`: the “cell-surface Lgr5 expression” value was inactive: 1.4.
On to `Cc1nn(C)c2[nH]c(=O)cc(CCl)c12`, for which the “cell-surface Lgr5 expression” value was inactive: 1.2.
Regarding `OCCN1CNC(=S)NC1`, the “cell-surface Lgr5 expression” value is inactive: 1.33.
For `Cc1nc([N+](=O)[O-])cn1Cc1nnc(N)s1`, the “cell-surface Lgr5 expression” value is inactive: 1.07.
In the case of `CC(C)OC(=O)CNc1n[nH]c(=O)[nH]c1=O`, the “cell-surface Lgr5 expression” value was inactive: 1.11.
As to `CN(C)S(=O)(=O)N1CCN(c2ccccc2)CC1`, the “cell-surface Lgr5 expression” value is inactive: 1.16.
For `Cc1ccnn1CCCNc1[nH]ncc1[N+](=O)[O-]`, the “cell-surface Lgr5 expression” value was inactive: 1.18.
With `O=C1Nc2ccccc2/C1=N\N1CCN(C2c3ccccc3-c3ccccc32)CC1`, the “cell-surface Lgr5 expression” value was active: 2.68.
As to `CCCCc1[nH]nc2c1C1(CC[C@H]3CO[C@@H]1O3)C(C#N)=C(N)O2` (stereo partly drawn), the “cell-surface Lgr5 expression” value was inactive: 1.19.
On to `N#CC1=C(N)C(C#N)(C#N)C(c2ccc(C3C4CCCC=C4C(C#N)=C(N)C3(C#N)C#N)cc2)C2CCCC=C12` (stereo not drawn), for which the “cell-surface Lgr5 expression” value was inactive: 1.05.
For `FC(F)(F)c1nc2ccccc2n1Cc1cc(Cl)cc2c1OCOC2` the value was inactive: 1.18; for `Cc1c(NC(=O)Sc2n[nH]c(=O)n2-c2ccccc2)c(=O)n(-c2ccccc2)n1C`, inactive: 1.37.
Regarding `CCOc1nc(C#N)nc(N2CCOCC2)n1`, the “cell-surface Lgr5 expression” value was inactive: 1.08.
Consider `Sc1nnc(Cn2cnc3ccccc32)n1-c1ccccc1`, for which the “cell-surface Lgr5 expression” value is inactive: 1.21.
Turning to `Oc1nc([O][Na])nc2nc(SCc3ccccc3)sc12`, the “cell-surface Lgr5 expression” value was inactive: 1.35.
`CCCCCCCCC1CC1C(=O)O` (stereo not drawn): the “cell-surface Lgr5 expression” value is inactive: 1.04.
Regarding `c1ccc2c(c1)CC1(CCCCC1)N=C2N1CCOCC1`, the “cell-surface Lgr5 expression” value was inactive: 1.26.
Take `CCOCCOCn1c(C)c(N2CCCC2)c(=O)[nH]c1=O`: the “cell-surface Lgr5 expression” value is inactive: 1.05.
Take `Nc1nnnn1/N=C\c1cccn1-c1ccc(S(N)(=O)=O)cc1`: the “cell-surface Lgr5 expression” value was inactive: 0.903.
For `Fc1ccc(/C=N\c2ccc3cc4ccc(/N=C\c5ccc(F)cc5)cc4nc3c2)cc1`, the “cell-surface Lgr5 expression” value was active: 2.49.
`O=C1[C@H]2OC[C@H](O2)[C@H]2[C@H]1[C@H]1C=Cc3ccccc3N1[C@@H]2C(=O)c1ccc(F)cc1`: the “cell-surface Lgr5 expression” value is inactive: 1.31.
In the case of `N#Cc1cc2c(nc1SCc1cccc(C(F)(F)F)c1)CCC2`, the “cell-surface Lgr5 expression” value was inactive: 1.18.
For `O=C(O)c1cn(C2CC2)c2cc(Cl)c(F)cc2c1=O`, the “cell-surface Lgr5 expression” value is inactive: 1.26.
On to `COC(=O)[C@@H]1C[C@@H](O)CN1.Cl`, for which the “cell-surface Lgr5 expression” value is inactive: 0.937.
On to `COc1ccc2nc(/C(N)=N\O)sc2c1`, for which the “cell-surface Lgr5 expression” value was inactive: 1.14.
For `O=C1CSC2(C(=O)Nc3ccccc32)N1c1ccc(Br)cc1` (stereo not drawn) the value was inactive: 1.14; for `COC1N(c2ccccc2)N=C(c2ccccc2)N1c1ccccc1` (stereo not drawn), inactive: 1.04.
For `[O-][n+]1c2ccccc2[n+]([O-])c2c3ccccc3ccc21`, the “cell-surface Lgr5 expression” value was inactive: 0.997.
Consider `Cc1c(C)c2c(c(C)c1N)NC(=O)CO2`, for which the “cell-surface Lgr5 expression” value was inactive: 1.25.
For `O=C1OCCN1/N=C\c1ccc([N+](=O)[O-])o1` the value was inactive: 1.18; for `O=C1CC2CS(=O)(=O)CC2N1c1ccc(OC(F)(F)F)cc1` (stereo not drawn), inactive: 0.968.
For `O=C(O)CCCCCN1C(=O)/C(=C2/C(=O)Nc3ccc(Br)cc32)SC1=S` the value was inactive: 1.41.
As for `CCn1cc(C(=O)Nc2cnn(C)c2C(=O)NCc2cnn(C)c2)cn1`, the “cell-surface Lgr5 expression” value is inactive: 1.14.
For the compound `CCCC(=O)Sc1[s+]sc2c1-c1cc(C)ccc1NC2(C)C.[Cl-]`, the “cell-surface Lgr5 expression” value is inactive: 1.02.
Regarding `C(#N)C(=C\C=c1\ccn(cc1)C1CCCCC1)/C#N`, the “cell-surface Lgr5 expression” value is inactive: 0.722.
Consider `CCCCNC(=O)OCCSC(=S)NCCC`, for which the “cell-surface Lgr5 expression” value is inactive: 1.22.
As to `COC(=O)CN1N=C2c3ccccc3C(=O)c3cccc(c32)S1(=O)=O`, the “cell-surface Lgr5 expression” value was inactive: 0.93.
For `Cc1cn2c(-c3ccccc3F)nc(=S)nc2s1`, the “cell-surface Lgr5 expression” value was inactive: 0.871.
As to `Sc1nnc(-c2ccncc2)n1/N=C/C=C\c1ccco1`, the “cell-surface Lgr5 expression” value was inactive: 1.05.
On to `Nc1nc(-c2sc3nc4c(cc3c2N)CCC4)nc(N2CCOCC2)n1`, for which the “cell-surface Lgr5 expression” value was inactive: 1.14.
Regarding `CC(=O)C1C(=O)c2ccc(Br)cc2C1=O` (stereo not drawn), the “cell-surface Lgr5 expression” value is inactive: 1.07.
For `CCC1CCc2c(sc(N)c2C#N)C1` (stereo not drawn) the value was inactive: 1.53.
`Nc1ccc2c(c1)nc1ccccn12`: the “cell-surface Lgr5 expression” value is inactive: 1.48.
Consider `COc1cccc(OC)c1-c1noc(CSc2nc3ccccc3o2)n1`, for which the “cell-surface Lgr5 expression” value is inactive: 1.15.
With `Cc1cc2c3c(c1)C(C)CC(C)(C)N3C(=O)C2=O` (stereo not drawn), the “cell-surface Lgr5 expression” value was inactive: 1.29.
In the case of `O=S(=O)(Nc1nccs1)c1ccc(Br)cc1`, the “cell-surface Lgr5 expression” value is inactive: 1.
For `COc1cc(-c2nnc(S)n2-c2ccc3c(c2)OCO3)cc(OC)c1OC` the value was inactive: 1.49; for `N=C(N)Nc1nc2ccccc2o1`, inactive: 1.11; for `NC(=O)c1c(F)c(F)c(N)c(F)c1F`, inactive: 1.04.
Take `S=c1[nH]nc(-c2cccc(Br)c2)n1-c1ccccc1`: the “cell-surface Lgr5 expression” value is inactive: 1.16.
For `CCCCC(CC)CN1C(=O)/C(=C/c2c(NCc3ccco3)nc3ccccn3c2=O)SC1=S` (stereo not drawn) the value was inactive: 1.12.
For the compound `O=S(=O)(Nc1nc2ccccc2s1)c1ccc(F)cc1`, the “cell-surface Lgr5 expression” value was inactive: 1.09.
For `Fc1cccc(Cl)c1-c1nnc2ccc3ccccc3n12` the value was inactive: 1.1; for `C=CCSc1nc2c(c(=O)n1C1CCCCC1)C1(CCCCC1)Cc1ccccc1-2`, inactive: 1.11.
`CC1(C)OC(=O)N2CCn3c(cc4ccccc43)C21C` (stereo not drawn): the “cell-surface Lgr5 expression” value is inactive: 1.32.
For the compound `N#CC1=C2C=CC(O)=CC2OC=C1N` (stereo not drawn), the “cell-surface Lgr5 expression” value was inactive: 1.21.
Take `CC1CCCN(c2nc3ccccn3c(=O)c2C=O)C1` (stereo not drawn): the “cell-surface Lgr5 expression” value is inactive: 1.22.
For the compound `CC(=O)c1sc(N)c(C#N)c1C`, the “cell-surface Lgr5 expression” value is inactive: 1.12.
For `Clc1ccc(CNn2cnnc2)cc1Cl` the value was inactive: 1.23; for `Nc1[n+]([O-])c(N)[n+]([O-])c(N)[n+]1[O-]`, inactive: 1.35.
For `C1=CC2CC1CC21COC(c2ccc3oc4ccccc4c3c2)OC1` (stereo not drawn), the “cell-surface Lgr5 expression” value was inactive: 1.06.
For `O=C(N/N=C\c1cccs1)c1cnccn1` the value was inactive: 1.38; for `O=C1C2=CNc3ccccc3NC2Oc2ccccc21` (stereo not drawn), inactive: 1.35.
For `C=CCOc1ccc2ccc(=O)oc2c1` the value was inactive: 1.07; for `Cc1ccc(C(=O)CSc2nnc(-c3ccco3)o2)o1`, inactive: 0.917.
`CC(=O)CC[C@H]1[C@H](C#N)[C@H](C(C)C)CC[C@@]1(C)OC(C)=O`: the “cell-surface Lgr5 expression” value was inactive: 1.49.
Consider `O=c1nc2oc3ccccc3cc-2c2ccccc12`, for which the “cell-surface Lgr5 expression” value is active: 2.15.
Consider `Cn1c(=O)c(C2=NNC(=O)/C2=C/c2c(O)c3cccnc3[nH]c2=O)c(O)c2ccccc21`, for which the “cell-surface Lgr5 expression” value was inactive: 1.19.
In the case of `COc1cc(N2C(=O)C3C4C=CC(C4)C3C2=O)nc(OC)n1` (stereo not drawn), the “cell-surface Lgr5 expression” value was inactive: 1.2.
For `N#Cc1cnn2cc(-c3[nH]ncc3[N+](=O)[O-])cnc12` the value was inactive: 1.23; for `O=[N+]([O-])c1ccc(CS(=O)(=O)[O-])cc1.[Na+]`, inactive: 1.15.
For `C#CC1(NC(C)=O)CCCCC1`, the “cell-surface Lgr5 expression” value was inactive: 1.19.
Consider `O=[N+]([O-])c1cnn(-c2cn[nH]c2)c1`, for which the “cell-surface Lgr5 expression” value is inactive: 1.42.
As to `O=C(CCC1CCCCC1)N1CCN(C(=O)C23CC4CC(CC(C4)C2)C3)CC1`, the “cell-surface Lgr5 expression” value is inactive: 1.07.
`N#CC1=C(N)Oc2c(oc(CO)cc2=O)C1c1cccs1` (stereo not drawn): the “cell-surface Lgr5 expression” value is inactive: 0.821.
Turning to `COc1c(F)cc(Br)cc1[N+](=O)[O-]`, the “cell-surface Lgr5 expression” value is inactive: 1.12.
As for `Cc1nn(C)c2[nH]c(=O)cc(C(F)(F)F)c12`, the “cell-surface Lgr5 expression” value is inactive: 1.07.
Turning to `c1ccc(-n2nnnc2-n2ccnc2)cc1`, the “cell-surface Lgr5 expression” value was inactive: 1.15.
As for `CCOC(=O)C1=C(C)OC(N)=C(C#N)[C@@H]1c1ccccc1[N+](=O)[O-]`, the “cell-surface Lgr5 expression” value is inactive: 0.92.
Take `CS(=O)(=O)N1CCc2cc(S(=O)(=O)Nc3ccc4oc5c(c4c3)CCCC5)ccc21`: the “cell-surface Lgr5 expression” value is inactive: 1.29.
On to `C1(/C(CC(CC1=O)(C)C)=O)=C(/NCC1OCCC1)C` (stereo not drawn), for which the “cell-surface Lgr5 expression” value was inactive: 1.11.
For the compound `C(=C/c1ccccc1)/C=N/Nc1nnn[nH]1`, the “cell-surface Lgr5 expression” value was inactive: 1.3.
